Hit rate of the full screen: of about 53,000 sequences, about 3,700 (7%) were called active.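 Rule for the calls: active = gene knockdowns whose robust z-score for IL-1 alpha signal is at least 2 or at most -2, so actives lie on both sides; inactive = the rest.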 The list shows a part of the results.
assay: Components of the Cytosolic LPS Sensing Pathway: Gene Identification via Genome-wide siRNA Screen; conditions: RAW264.7 macrophages, IL-1a HTRF, actives lie on both sides, screened at 100 nM (by protocol), cells primed 5 h with Pam3CSK4 first;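 note: robust z of the log signal after scaling to non-targeting control siRNA wells of the plate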
In short: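 Knockdown: 100 nM siRNA, 48h, RAW264.7. Stimulation: Pam3CSK4 5 h, then LipidA via TransIT-TKO 24 h. Output: supernatant IL-1a HTRF, negative-control-normalized, log robust z-score; viability by CellTiter-Glo.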

Sequence | z-score
GGUUUAUUCAUUAUUCUCCTT against 8030462N17Rik | inactive: -1.57
CCUAUGGCCAUGAUCCUUATT against Olfr575 | inactive: 1.29
GGUUUUAGAAUGUCUUUCATT against Rida | inactive: -0.00853
GACUAUCUCAUUCUCAGCUTT against Olfr1238 | inactive: -0.358
GGCACUAGAAGAGAGGUACTT against 4932416K20Rik | inactive: 0.768
GCAACCUGUCCCUUCUUGATT against Olfr225 | inactive: 1.53
GAAGCACAACCUCGGCUUUTT against AY074887 | inactive: 0.448
GCUGGAUUUGACAUUAUCGTT against Olfr151 | inactive: 0.509
CCUUAAGUGUGUCAGGGCATT against Sdhaf4 | inactive: -1.99
GGUGUGUUAAUUUCUAGAUTT against Frs2 | inactive: 0.945
GGUUGAAGCAGAAGAUAAUTT against Asnsd1 | active: -2.2
GCCAAGUUCAUCAAGAAGCTT against Dapk3 | inactive: 0.0472
GGGUACGUGAAGAAACUUCTT against Meig1 | active: -2.23
CGAAAUUCGGAAUGUAUAUTT against Tnp1 | inactive: -1.85
GGUGAUGCUGGAAUCUUCCTT against Svop | inactive: 0.216
UUGUCAUUCACUUGAUGAATT against H2bu2 | inactive: 0.238
GGAUUACCUGAACAGCGAUTT against Zfhx3 | inactive: -0.738
GGCAUUAUCACAUAAAGGATT against Tec | inactive: 0.0984
GCAGUGAACCGUAUUGGACTT against Ncam1 | inactive: 0.406
CCGUCACUUUUAACCAUGUTT against Speg | active: 4.19
GGGCUCUUCUCAUUCUAUATT against Olfr551 | inactive: -0.232
GGAUGUUUUCCCGACAAGATT against Angptl1 | inactive: -1.27
GGGAAAGCCAUCCUUCACUTT against Erich5 | inactive: 0.288

Sequence | z-score
CCAGACUGAGAAGAUAUGATT against Meox2 | inactive: -0.146
GCUCCAGAAUAUAUUGUUCTT against Arfgap3 | inactive: 1.39
GCAGGCCUUGUAUAGUGUGTT against Ccar1 | inactive: -0.63
GCCAAGCAUAAUCUAAUGATT against Prpf4b | inactive: 0.851
GGUAGAGAGCUCAACAGGGTT against Klrb1c | inactive: 0.287
GCAUUACUAUGACCGAUCCTT against Magea4 | inactive: 0.239
GCGAUGGAUUGUAAAAUUATT against Defb1 | inactive: -0.0394
GGCCAUUUAUCCAUGGUUGTT against Zdhhc17 | inactive: 0.954
CCACUCCAAGACCUACUCCTT against Large1 | inactive: 0.638
GGAAGUCUAUGGUUUUUAGTT against Csnk2b | active: 2.97
GCCAGAAAGCGUGUCAGAUTT against Hddc2 | inactive: 1.65
GGCUUUUAAGGUCAUCCCUTT against Bysl | inactive: -0.737
GGGAAUUUUGGAAGAGUCUTT against F630003A18Rik | active: -3.23
GGAGCUCCACCCUUAUUCATT against Zfp113 | inactive: 0.775
GGUAUUCGAGACCUGAUUATT against Frem2 | inactive: -1.28
CCUAGAAUUCAUGGAAAAUTT against Olfr1196 | inactive: -1.02
GGGUGACAUGAUUUUAACUTT against Fbh1 | inactive: -0.727
GGACAGGCAGAGUUUACAGTT against Rit1 | inactive: -1.58
GCUGACCUUCAUUCAUAUATT against Vmn1r27 | active: -2.06
CGGAUAACGGGAAUUUUAUTT against Rpia | inactive: 0.535
GCAUUUCCCAUCCUCUUGATT against Mrpl51 | inactive: -0.174
GGAUGUUCUAAAGAAGAGATT against Eri1 | inactive: -0.547
GGAUCCAAGUUCCUGGCUCTT against Rtbdn | inactive: 0.256

Sequence | z-score
GCCAUUAAGGAAAUGUUCUTT against Olfr426 | inactive: -0.969
GGAAGUUUUUGAGAAUGGGTT against Ppp3cc | inactive: -0.38
GGGAUAUAGAACUGUUGAUTT against Olfr1048 | inactive: -0.927
GCUCCUACUGUCCAGCAAUTT against Dusp18 | inactive: -0.642
CGAGUAAGUUCAAUAGACCTT against Olfr954 | inactive: -0.792
GGACAAGUUCAGCUACAUCTT against Ranbp9 | inactive: -1.05
GGCUAUUUCUACCUGUAUCTT against Otop2 | inactive: -0.584
CCUAUCAUAACGGUGAUAATT against Ddb1 | inactive: -0.423
GGAUAAACAACAAUGAGAATT against Btg4 | inactive: -1.72
GGUCCAGCACGUCAAAGACTT against Myo1f | inactive: 0.301
GGCAGGCUGUUUGAUCAAGTT against Cyp2a12 | inactive: 1.01
GGAGUUUGUCAACGAGGUGTT against Arl10 | inactive: -0.75
GGCUGUGUAUGCUGAUGUCTT against Cops7a | inactive: 0.0658
CGUGGUCAGUAAGAUUUAUTT against Rragd | inactive: 1.45
GCAACUUUUAAUUGGUCUATT against Agrn | inactive: -0.537
CCAAAAGCUUUUGUGUUCATT against Pnpla8 | inactive: 0.358
GGCAUAUUGUUUCAUUUUGTT against Rlbp1 | inactive: -1.19
GGAAACUGAGUUAGAUGCATT against Daglb | inactive: 0.562
GGACAGCAGAAGGUCUCAUTT against Lilra6 | inactive: -0.358
GGACUUGGUUUAUGAAACATT against Kif9 | inactive: -1.33
GGGAUUAAGGAUAAAGUUGTT against Usp28 | inactive: -0.452
GGAACAAGAAACCACAAUGTT against Agpat1 | inactive: 0.281

Exported with tabs: part of the list above
Sequence	z-score
GGUAGAGAGCUCAACAGGGTT against Klrb1c	inactive: 0.287
CCACUCCAAGACCUACUCCTT against Large1	inactive: 0.638
